Reference: publication PMC12040169 (PLOS Biology, 2025)
The other results are listed elsewhere or left out.

System: T1, CTL2-GFP (C. trachomatis L2/434/Bu, GFP-expressing)
T1 construct: L2/434/Bu, GFP-expressing
Design: species or system HeLa; Intracellular C. trachomatis growth in HeLa cells, bulk GFP fluorescence relative to DMSO
Conditions: bulk GFP, single well; 28.5 h, 10 µM; inhibitor

| SMILES | % of control remaining [%] |
| --- | --- |
| Cc1cc(Oc2ccccc2)nc(Oc2ccc(=O)n(-c3ccccc3)n2)n1 [CBK269843] | 80.9771 |
| Cc1cc(-c2ccc(=O)n(CCNC(=O)C3CCC3)n2)c(C)o1 [CBK284520] | 81.5477 |
| O=c1ccc2cccc(OCCO)c2o1 [CBK149730] | 148.433 |
| O=C(NC(c1ccccc1)c1ccco1)C1CCN(CCc2c[nH]c3ccccc23)CC1 (centres unmarked) [CBK148290] | 151.018 |
| CC(=O)N1CCc2cc(-c3cc4cc(C)ccn4c3)ccc21 [CBK285228] | 166.321 |
| O=C(O)c1cccc(NS(=O)(=O)c2ccc3c(c2)OCCO3)c1 [CBK155697] | 126.75 |
| CC(C)(CO)CNc1cncc(-c2cccc(Cl)c2)n1 [CBK037862] | 90.6442 |
| CCn1c(COc2ccc(Cl)c3cccnc23)nnc1SC [CBK266611] | 137.561 |
| O=C(c1ccc2c(c1)OCO2)N1CCN(C(=O)c2ccc(Cl)cc2F)CC1 [CBK296685] | 141.94 |
| CCn1c(=O)n(CC(=O)N2CCCC2)c2cccnc21 [CBK283904] | 92.429 |
| CCOC(=O)CNS(=O)(=O)c1ccc(-c2ccccc2)cc1 [CBK034435] | 106.013 |
| O=C(O)C(Cc1c[nH]cn1)N1C(=O)C2CC=C(Cl)CC2C1=O (centres unmarked) [CBK286871] | 116.485 |
| C=C(C)CNC(=O)c1ccc(C)nc1N1CCN(C(=O)c2ccco2)CC1 [CBK076401] | 112.166 |
| CCn1c2ccccc2c2cc(NC(=O)C(C)Sc3n[nH]c(=O)n3C3CC3)ccc21 (centres unmarked) [CBK296636] | 120.69 |
| OCCSCc1ccc2nonc2c1 [CBK020617] | 116.229 |
| COC(=O)c1ccccc1NC(=O)CN(C)S(=O)(=O)c1c(C)cc(C)cc1C [CBK266241] | 112.927 |
| COc1ccc(Sc2nc3ccccc3nc2N2CCCC2)cc1OC [CBK093797] | 102.474 |
| CC(C)(C)C1=CC2=NC3(CCC3)[C@@H]3C[C@@H](O)[C@@H](O)[C@@H]3N2O1 [CBK303243] | 91.0677 |
| CCCc1[nH]nc(O)c1Cc1cc(C(F)(F)F)ccc1Cl [CBK075032] | 121.066 |
| Cc1cccc(OCC(=O)NCCCc2ccccc2)c1C [CBK265507] | 121.586 |
| N=C(N)NC(=N)NCCc1c[nH]c2ccccc12 [CBK267706G] | 104.113 |
| CSc1nc(=O)c(CCC(=O)O)n[nH]1 [CBK019689] | 111.514 |
| c1ccc(-c2ccccc2CN2CCC(Oc3nccnc3OCCN3CCOCC3)CC2)cc1 [CBK082924T] | 100.867 |
| Oc1c(Cl)cc(Cl)cc1/C=N/c1ccc(-c2nc3ccc(/N=C/c4cc(Cl)cc(Cl)c4O)cc3[nH]2)cc1 [CBK261660] | 100 |
| Cc1[nH]c2ccccc2c1C(=O)CSc1nncc2ccccc12 [CBK297912] | 130.621 |
| O=C(c1cccc2ncccc12)N1CCN(CC2CCOC2)CC1 (centres unmarked) [CBK305140] | 128.363 |

A different layout for part of the listing above:
SMILES	% of control remaining [%]
OCCSCc1ccc2nonc2c1 [CBK020617]	116.229
N=C(N)NC(=N)NCCc1c[nH]c2ccccc12 [CBK267706G]	104.113
c1ccc(-c2ccccc2CN2CCC(Oc3nccnc3OCCN3CCOCC3)CC2)cc1 [CBK082924T]	100.867

Further compounds follow.

| SMILES | % of control remaining [%] |
| --- | --- |
| CC(C)(C)C1CCC(=NNC(=O)c2ccc(CN3CCOCC3)cc2)CC1 (centres unmarked) [CBK018812] | 101.705 |
| CCCCN(C(=O)c1cc(C)nc2ccccc12)c1ccccc1 [CBK296926] | 121.502 |
| O=C(CC(CC(=O)c1ccc(Cl)cc1)c1ccccc1C(=O)O)c1ccc(Cl)cc1 [CBK265604] | 123.226 |
| Cc1nnc2ncc(-c3ccccc3C(=O)N(C(C)C)C(C)C)cn12 [CBK307393] | 157.894 |
| Cc1nc(C(=N)N)nc2ccccc12 [CBK010368C] | 62.4913 |
| Cc1ccc(/C=C2\SC(=S)N(CC(=O)Nc3cccc(C(=O)O)c3)C2=O)cc1 [CBK263935] | 117.003 |
| CC(=O)c1ccc(C(=O)Nc2sc3c(c2C#N)CCN(C(C)=O)C3)cc1 [CBK304418] | 137.354 |
| Cc1csc(-c2ccc(C(=O)N3CCN(C)CC3)c(N3CCOCC3)n2)c1 [CBK106195] | 139.321 |
| CC(=O)NC(N(C)S(=O)(=O)c1ccc(C)cc1)C(Cl)(Cl)Cl (centres unmarked) [CBK262662] | 112.915 |
| CC(C)(C)c1ccc(OCC(O)CNS(=O)(=O)O)cc1 (centres unmarked) [CBK261169N] | 120.79 |
| CCC(=O)N1CCc2cc(C(O)CN3CCCCC3C)ccc21 (centres unmarked) [CBK283112] | 112.737 |
| COc1ccc([C@@]23CC[C@@H](NC(=O)CNc4ccc(Cl)c(Cl)c4)C[C@@H]2N(C)CC3)cc1OC [CBK038220] | 77.1436 |
| CC(c1ccc(S(C)(=O)=O)cc1)N(C)C(=O)COc1ccc2ccccc2c1 (centres unmarked) [CBK296738] | 131.163 |
| CC(NC(=O)c1ncoc1-c1ccccc1Cl)c1ccccn1 (centres unmarked) [CBK282409] | 179.7 |
| Cc1cc(C)cc(NC(=O)CSc2ncccn2)c1 [CBK287577] | 150.982 |
| O=[N+]([O-])c1cccc(/C=N/Nc2nc(-c3ccccc3)cc(-c3ccccc3O)n2)c1 [CBK261722] | 100.327 |
| CC(=O)N1CCc2sccc2C1c1ccc(NCc2ccc(F)c(F)c2)cc1 (centres unmarked) [CBK286452] | 117.808 |
| C=CCc1cc(C)cc(C)c1OCCN1CCN(CC)CC1 [CBK267392G] | 154.904 |
| O=C(Nc1ccc(S(=O)(=O)Nc2ccc(Cl)c(C(F)(F)F)c2)cc1)c1ccc(CN2CCOCC2)cc1 [CBK264777] | 57.6236 |
| CCC(CC)C(=O)N1c2ccccc2C(C)(c2ccccc2)CC1(C)C (centres unmarked) [CBK073862] | 89.6513 |
| c1cnc(NCc2cc3n(n2)CCN(CC2CCCCC2)C3)cn1 [CBK307592] | 134.154 |
| O=C(c1cccnc1)N1CCCC(n2cnc3cc(F)ccc32)C1 (centres unmarked) [CBK284474] | 142.172 |
| O=C1/C(=C/c2ccc(OCc3cccc([N+](=O)[O-])c3)cc2)SC(=S)N1CCc1ccccc1 [CBK264641] | 123.142 |
| CN(C)C(=O)c1ccc(-c2ccc(OC3CCN(C(=O)CCC(=O)N4CCCC4)CC3)nc2)cc1 [CBK155051] | 88.6295 |
| CNC(=O)c1sc2ccccc2c1C1CCN(Cc2cnc(-c3ccc(C)cc3)nc2)C1 (centres unmarked) [CBK285883] | 83.6884 |
| O=C(OCc1nc2ccccc2[nH]1)N1CCOCC1 [CBK200146] | 89.5519 |

| SMILES | % of control remaining [%] |
| --- | --- |
| O=C(Nc1ccc(-c2noc(COc3ccc(Br)cc3)n2)cc1)c1ccc2c(c1)OCO2 [CBK266692] | 146.055 |
| CC(C)(C)c1nn(CC2CCCCC2)c(=N)s1 [CBK075042] | 59.8572 |
| CCN1CCN(C(=O)c2cccc(N(C)C)c2)C(Cc2ccc(-c3ccncc3)cc2)C1=O (centres unmarked) [CBK285813] | 124.401 |
| CCC(Oc1nc2ccccc2nc1-c1ccccc1NC(C)=O)C(=O)c1ccccc1 (centres unmarked) [CBK267315] | 95.3441 |
| COCCNc1nc(-c2cccc(C(N)=O)c2)cnc1N [CBK063901] | 158.985 |
| Cc1cc(COc2nccnc2N2CCN(Cc3ccc([N+](=O)[O-])cc3)CC2)no1 [CBK084189] | 103.599 |
| O=C(CN1CCN(Cc2ccc3c(c2)OCO3)CC1)Nc1ccc(Cl)cc1C(=O)c1ccccc1 [CBK264241] | 90.3637 |
| COc1ccc(Cl)cc1NC(=S)NCCn1cc(Cl)cn1 [CBK267063] | 179.802 |
| Cn1c(NC(=O)c2ccccc2[N+](=O)[O-])cc(=O)n(C)c1=O [CBK294417] | 149.901 |
| COc1cc(C(=O)Nc2cc(-c3nc4ncccc4o3)ccc2C)cc(OC)c1OC [CBK101133] | 100 |
| Fc1ccccc1CN(CCCn1ccnc1)Cc1ccncc1 [CBK282981] | 152.369 |
| COc1ccc(C2=C3NN=C(N)N3NN2)cc1 [CBK093662] | 115.368 |
| Oc1ccc2ccccc2c1/C=N/Nc1nnn[nH]1 [CBK262028] | 100 |
| N/C(=N/OCC(=O)Nc1cccc2ccccc12)c1nonc1N [CBK265234] | 125.934 |
| Cn1c2c(c(=O)n(C)c1=O)[C@H]1[C@H](O)[C@H](O)C[C@H]1C1(CCC1)N2 [CBK303250] | 146.094 |
| O=C(Oc1ccc2c(c1)C1C=CCC1C(C(=O)O)N2)c1ccc(Cl)cc1Cl (centres unmarked) [CBK265285] | 114.843 |
| CC(=O)Nc1ccc(C(=O)N2CCCC(c3cccc(Cc4ccc(Cl)cc4)n3)C2)cc1 (centres unmarked) [CBK286134] | 99.854 |
| CC(C)(C)N1C(=O)c2ccc(C(=O)NNC(=O)C(C#N)C(=O)c3ccc4c(c3)C(=O)N(C(C)(C)C)C4=O)cc2C1=O (centres unmarked) [CBK268652] | 144.029 |
| O=C(Nc1cccc2ccccc12)c1ccc(CSCc2ccccc2)cc1 [CBK263759] | 107.291 |
| Cc1ccn(-c2ccc(N3CCOC4(CCCC4)C3)nn2)n1 [CBK305262] | 102.093 |
| Cc1ccc(NC(=O)c2cnccn2)c(C)n1 [CBK200291] | 107.221 |
| COc1ccc(CCNC(=O)N2CCCC2C(=O)O)cc1 (centres unmarked) [CBK161386] | 131.828 |
| COc1ccc(C(O)Cc2nc3ccccc3n2Cc2ccc(Cl)cc2)cc1 (centres unmarked) [CBK262143] | 112.506 |
| CC(=O)NCCc1nc2cc(NC(=O)c3ccc([N+](=O)[O-])cc3)ccc2n1C [CBK268368] | 112.323 |
| CS(=O)(=O)N1CCC(C(=O)NC(c2ccc(F)cc2)c2ccccn2)CC1 (centres unmarked) [CBK059696] | 108.511 |
